Paper doi:10.1101/2025.03.31.646364
Results are given in words; binding and its absence hold for the method and conditions named. In cells and extracts the contact can be indirect. Some results given as binding are weak or reduced against the parent protein; the word gives no strength.

Molecular target: Rheb (Ras homolog enriched in brain), endogenous in HeLa cells (human (endogenous in HeLa)) (UniProt Q15382)
Assay: co-IP

binding: binds
B1: SIRT2 (Sirtuin 2), endogenous in HeLa cells (protein, UniProt Q8IXJ6 1-389)
chain: MAEPDPSHPLETQAGKVQEAQDSDSDSEGGAAGGEADMDFLRNLFSQTLSLGSQKERLLDELTLEGVARYMQSERCRRVICLVGAGISTSAGIPDFRSPSTGLYDNLEKYHLPYPEAIFEISYFKKHPEPFFALAKELYPGQFKPTICHYFMRLLKDKGLLLRCYTQNIDTLERIAGLEQEDLVEAHGTFYTSHCVSASCRHEYPLSWMKEKIFSEVTPKCEDCQSLVKPDIVFFGESLPARFFSCMQSDFLKVDLLLVMGTSLQVQPFASLISKAPLSTPRLLINKEKAGQSDPFLGMIMGLGGGMDFDSKKAYRDVAWLGECDQGCLALAELLGWKKELEDLVRREHASIDAQSGAGVPNPSTSASPKKSPPPAKDEARTTEREKPQ
